In PubChem BioAssay AID2685 (National Center for Advancing Translational Sciences (NCATS), 2010) one finds cell number change and AC50 data, which are given here for 18 compounds.

As usually defined, the AC50 is the concentration giving half of the maximal activity seen. A higher AC50 goes with activity only at high concentration.

The nature of the assay: qHTS Assay for Lipid Storage Modulators in Drosophila S3 Cells.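 For cell number change: cells counted by Cell Tracker Red CMTPX staining in the red channel.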 As to conditions: BODIPY lipid droplet fluorescence, 18-24 h; for cell number change: measured here: cell count max response, cells fed with added oleic acid. In a few lines:
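Drosophila S3 cells got compounds at several concentrations plus oleic acid (400 uM solution). Laser-scanning cytometry with 488 nm excitation read lipid droplets at 500-530 nm and cells at 575-640 nm. Percent activity was relative to 20 uM Triacsin C.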
A general note: In qHTS, concentration-response curves come from the screen itself.

Setting [1] is: measured here: cell number channel AC50, cells fed with added oleic acid.
Where [2] appears, read: measured here: lipid fluorescence (Fed channel) AC50, cells fed with added oleic acid.

The list shows a part of the results. These are further read-outs of the screen, such as a control signal, another cell line or another target. No call is given for them. Compounds called inactive in the main read-out are mostly missing here. The note in brackets gives the kind of curve behind each potency; many fits are weak.

Take `COc1ccc(C2C(C#N)=C(N)Oc3cc4c(cc32)OCO4)cc1` (configuration not stated): the cell number change was determined as 205%. Under setting [1], the AC50 was 3.66 µM [rising, full curve]. The concentration at half-maximal activity (AC50) under setting [2] was 2.06 µM [rising, partial curve].
As for `O=C(c1ccsc1)N1CCCC(Nc2cccc(F)c2)C1` (configuration not stated), the cell number change came to 30.2%. Further, the AC50 under setting [1] was 22.4 µM [rising, single point].
As to `O=C(NNC(=O)c1csc(N2CCOCC2)n1)c1ccc(=O)[nH]c1`, the cell number change is -5.31%. Also, the AC50 under setting [2] is 8.2 µM [rising, partial curve].
Take `CCc1cc(=O)oc2c(C)c(OCC(=O)NCCN3CCOCC3)ccc12`: the cell number change is 4.18%. Under setting [2], the AC50 is 20.6 µM [rising, single point].
In the case of `CC1CCCCC12NC(=O)N(CC(=O)N1CCN(S(=O)(=O)c3cccs3)CC1)C2=O` (configuration not stated), the cell number change was 1.2%.
On to `COc1ccc(C(=O)c2sc3nc(-c4ccccc4)ccc3c2N)cc1`, for which the cell number change is 0.485%. In addition, the AC50 under setting [2] was 2.06 µM [rising, partial curve].
On to `O=C(NCC1OCCc2ccccc21)c1cc(COc2ccc(F)cc2Cl)on1` (configuration not stated), for which the cell number change was -23.4%. In addition, the half-maximal activity concentration (AC50) under setting [2] is 18.4 µM [falling, single point].
In the case of `O=C(CC(c1ccccc1)c1cc(Cl)ccc1O)N1CCOCC1` (configuration not stated), the cell number change is -132%. Besides, the AC50 under setting [1] is 20.6 µM [falling, single point].
As to `COc1ccc(C(=O)N2CCCC(c3ccccc3)=N2)cc1`, the cell number change came to 39.4%. Further, under setting [1], the AC50 was 6.51 µM [rising, partial curve]. For the same compound, under setting [2], the AC50 is 29.1 µM [rising, single point].
With `COCCN(C(=O)Nc1ccc(OC)cc1OC)C1CCN(C(C)=O)CC1`, the cell number change is -27.3%. Further, the AC50 under setting [2] is 29.1 µM [falling, partial curve].
Regarding `COc1cc(C=C2C(=O)OC(C)(C)OC2=O)ccc1OCC(=O)Nc1ccccc1`, the cell number change worked out at 13.2%. Besides, the AC50 under setting [2] was 0.13 µM [rising, full curve, poor fit].
For `Cc1ccc(O)c(CC(C)C)n1`, the cell number change was -2.26%. Under setting [2], the AC50 was 2.59 µM [falling, single point].
`CC(C)(C)c1ccc(C(=O)Nn2cnnc2)cc1`: the cell number change amounted to 0.549%.
For `CC(C)C(C(=O)O)N1C(=O)/C(=C/c2cccn2C)SC1=S` (configuration not stated), the cell number change was determined as 30.7%. Further, the concentration at half-maximal activity (AC50) under setting [1] is 0.092 µM [rising, full curve, poor fit].
`CCN(CC)c1ncnc2c1cnn2C`: the cell number change is -6.35%. Moreover, the AC50 under setting [2] was 10.3 µM [falling, partial curve, poor fit].
For `CC(C)CCNC(=O)C1CCC(CNS(=O)(=O)c2cccc3nsnc23)CC1` (configuration not stated), the cell number change is -34.4%. The AC50 under setting [1] is 29.1 µM [falling, single point].
For the compound `Cc1ccccc1OCC(=O)N1N=C(c2cccnc2)CC1(O)C(F)(F)F` (configuration not stated), the cell number change was -3.83%. The AC50 under setting [2] was 2.06 µM [rising, partial curve].
On to `COc1cccc(NC(=O)CSc2ncnc3c2cnn3Cc2ccccc2)c1`, for which the cell number change is 23.5%. Further, under setting [1], the AC50 is 0.92 µM [rising, partial curve, poor fit]. Further, the AC50 under setting [2] was 0.82 µM [rising, single point].
